Assay results taken from the supplement of paper PMC10338343.
± gives the standard deviation. The list shows a part of the results, in another mix than the full data. The uncertainty is large for many entries.

test system: MILI (PIWIL2) piRISC loaded with Kctd7 piRNA (26 nt); assay: pre-steady-state target cleavage rate (min^-1); MIWI and MILI are mouse PIWI proteins and EfPiwi is from a freshwater sponge; tags in brackets are library labels; higher = faster piRNA-guided slicing of the target; conditions: guide: Kctd7 piRNA 5'p-UGUUAAUCUCUCAGAGAAGGUGACAG; auxiliary factor: 500 nM mouse GTSF1
Procedure, shortened: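 The pre-steady-state cleavage rate was calculated from a burst-and-steady-state fit. Data came from Cleave-'n-Seq, in which […] transcribed, DNA-blocked target RNA library was mixed with 1 nM active affinity-purified piRISC carrying one synthetic guide, with or without 500 nM GTSF1 partner protein, in HEPES–potassium acetate buffer at 33 °C for 0–8 or 0–960 min. Uncleaved targets were sequenced and normalised to depth and to weakly complementary targets, three trials were pooled, and k3 was capped at 0.0001 min^-1.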
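Also: 1 nM active piRISC with 0.1 nM target library at 33 °C single turnover.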

Sequence	pre-steady-state target cleavage rate
UAGUGACAGUGGUUCUCUGAGAUGAUUAACA	0.00146 ± 0.0035
UAGUGACUCACCUUCUCUCUCAGAUUAAGA	0.000676 ± 0.011
UAGUGACAGUGGAAGAGACACAGAUUAAGA	0.000145 ± 0.052
UAGUGACAGUGGUUCUGUGAGAGAUUAAGA	0.000418 ± 0.018
UAGUGACACAGGUUCUCUGAGAGAUUAUGA	0.00299 ± 0.0035
UAGUGUGUCACCUUCUCUGUGACAUUAACA	0.00266 ± 0.0049
UAGUGUGUCACCUUCUCUGAGAGAGUUAACA	0.259 ± 0.046
UAGUGACACACCUUCUCUGAGAGAUUAUGA	0.0394 ± 0.012
UAGUGACAGUGGAAGAGAGAGAGAUCUAACA	0.000133 ± 0.025
UAGUGACAGACCUUCUCUGUAGAGAUUAACA	0.00145 ± 0.0066
UAGUGUGUCUGGUUCUCUGAGAGAUUAAGA	0.00173 ± 0.0057
UAGUGAGUCACCUUCUCUGACUCUAAUUGA [g11:g24:cont:t1A]	0.000626 ± 0.016
UAGUGACAGUGCUACUCUGAGUGAUUAACA	0.00187 ± 0.0022
UAGUGUGUCACCUUCUCUGACUGAUUAACA	0.00183 ± 0.0061
UAGUGACAGUCCUUCUCAGAGUGAUUAACA	0.00276 ± 0.0036
UAGUGACAGUCCUUCUCUCACAGAUUAACA	0.00149 ± 0.0064
UAGUGACAGACCUUCUCUGAGUCAUUUUGA	0.000836 ± 0.0074
UAGUGACUCACCUUCUCUCUCAGAUUUUGA	0.000176 ± 0.067
UAGUGACAGUGGUUCUCAGAGUGAUUAACA	0.00144 ± 0.0057
UAGUGACUCUGCUUCUCUGAGAGAUAUUGA	0.000872 ± 0.0053
UAGUGACAGACCUUCUCUGACUCAUUUUGA	0.000531 ± 0.019
UAGUGACAGUCCUAGACUGAGAGAUUAACA	0.00157 ± 0.005
UAGUGACAGUCCUUGAGUGAGAGAUUAAGA	0.000549 ± 0.014
UAGUGACACACCUUCUCUGACUCAUUUUGA	0.000852 ± 0.0094

Sequence	pre-steady-state target cleavage rate
UAGUGACUCACCAACUCUGAGAGAUUUUGA	0.000304 ± 0.018
UAGUGACAGUGGUUCUCUGAGAGAUUAAACA	0.00202 ± 0.0023
UAGUGACAGUGGAAGAGUGAGCGAUUAACA	0.000524 ± 0.011
UAGUGACAGUGGAACUCUGAGAGUUUUACA	0.000355 ± 0.034
UAGUGACUCACCUUCUCUGAGAGCAUUAACA	0.144 ± 0.016
UAGUGACAGUGCUACUCUGAGAGUUUAACA	0.000981 ± 0.0042
UAGUGACAGACGUUCUCUGACAGAUUAACA	0.0031 ± 0.0037
UAGUGACAGUGCUUCUCUGAGAGAUUACA	0.00151 ± 0.0045
UAGUGACAGUGGAAGUCUGAGUGAUUAACA	0.000198 ± 0.013
UAGUGUGUCACCUUCUCUGACUGAUAUUGA	0.000359 ± 0.018
UAGUCUGUCAGGAUCUCUGAGAGAUUAUGA	0.00185 ± 0.0041
UAGUGACAGACCUUCACUGAGUGAUUAACA	0.00199 ± 0.0054
UAGUGAGUCACCUUCUCUGAGAGAUUAACG [g2:g24:cont:t1G]	0.284 ± 0.021
UAGUGACAGUGGAUCUCUGAGAGAUUAUACA	0.000243 ± 0.02
UAGUGAGUCACCUUCUGCUGAGAGAUUAACA	0.264 ± 0.058
UAGUGACAGUGGAAGUCUGAGAGCUUAACA	0.000205 ± 0.013
UAGUGACAGUGCUUCUCUGUCAGAUUAACA	0.00224 ± 0.0028
UAGUGUGUCACCUUCUCUGACUCAUUAACA	0.0019 ± 0.0048
UAGUCUGUGUCCUUCUCUGAGAGAUAUUGA	0.000867 ± 0.0057
UAGUGAGUCACCUUCUCAGAGAGAUUUACA	0.0954 ± 0.024
UAGUGACAGUGGUUGUCUGUGAGAUUAACA	0.00247 ± 0.0042
UAGUGACAGACCUUCUCAGAGAGAUUUUGA	0.00196 ± 0.0064
UAGUGAGAUCACCUUCUCUGAGAGAUUAACA	0.178 ± 0.015
UAGUGACAGUCCUUCUCUGAGAGAAAAACA	0.000878 ± 0.0077

Nothing new here: an excerpt of the list.
Sequence	pre-steady-state target cleavage rate
UAGUGAGUCACCUUCUGCUGAGAGAUUAACA	0.264 ± 0.058
UAGUGACAGUGGAAGUCUGAGAGCUUAACA	0.000205 ± 0.013
UAGUGACAGUGCUUCUCUGUCAGAUUAACA	0.00224 ± 0.0028
UAGUGUGUCACCUUCUCUGACUCAUUAACA	0.0019 ± 0.0048
UAGUCUGUGUCCUUCUCUGAGAGAUAUUGA	0.000867 ± 0.0057
UAGUGAGUCACCUUCUCAGAGAGAUUUACA	0.0954 ± 0.024

Following part.

Sequence	pre-steady-state target cleavage rate
UAGUGACAGUGGAAGUCUGAGAGGUUAACA	0.00125 ± 0.0031
UAGUGACUCACCUUCUCUCAGAGAUAUUGA	0.000967 ± 0.011
UAGUGUGAGUCCUUCUCUGAGAGAUAUUGA	0.00092 ± 0.008
UAGUGACAGUGCUUCUCUGAGAGAUUAUGA	0.00082 ± 0.005
UAGUGACAGUGCUUCUCUGAGAGAAAAACA	0.000781 ± 0.0092
UAGUCUGUCACCUUCUCUGAGCAGAUUAACA	0.00288 ± 0.0039
UAGUGUGUCACCUUCUCUGAGAGUUUUACA	0.14 ± 0.046
UAGUGACAGUCCUUCUCUGUGUGAUUAACA	0.00142 ± 0.0047
UAGUGACUCACCUUCUCUCAGAGAUUAUGA	0.00319 ± 0.0053
UAGUGACACACGAUCUCUGAGAGAUUUUGA	0.000303 ± 0.021
UAGUGACAGUGGAAGUCUGGAGAUUAACA	0.000157 ± 0.021
UAGUGACAGUGGAAGACUGAGAGAUUAACC [g2:g14:cont:t1C]	0.000426 ± 0.013
UAGUGACAGUGGUUCUCUGAGUCAUUAACA	0.00015 ± 0.022
UAGUGACAGUGCUUCUCUGAGAGAUAUACA	0.002 ± 0.0027
UAGUGACAGUGGAAGACUGAGAGAUUCAACA	0.000147 ± 0.038
UAGUGACAGUGGAACUCUGACUGAUUAACA	0.000173 ± 0.024
UAGUGAGUCACGUUCUCUGAGAGAUUUUGA	0.00363 ± 0.0042
UAGUGACAGACCUUCAGAGAGAGAUUAAGA	0.000558 ± 0.025
UAGUGACAGACCUUCUCUCAGAGAAUAACA	0.00135 ± 0.0095
UAGUGACAGUGGAAGUCUGAGUCAUUAACA	0.00033 ± 0.019
UAGUGAGUCACCUUCUCUGCAGAGAUUAACA	0.00349 ± 0.0052
UAGUGACAGUCCUUGUCUGAGAGAUUUACA	0.00298 ± 0.0054
UAGUGACAGUGGAACUCUGAGACUUUAACA	0.00207 ± 0.01
UAGUGACAGUGGAAGAGACAGAGAUUCAACA	0.000653 ± 0.011

Sequence	pre-steady-state target cleavage rate
UAGUGACAGUGCUUCACUGAGAGAUAAACA	0.00164 ± 0.0054
UAGUGACACAGCUUCUCUGAGUGAUUAACA	0.00187 ± 0.006
UAGUGACUCACGAACUCUGAGAGAUUAACA	0.000843 ± 0.0036
UAGUGUGUCACCUUCUCUGAGAGAUUGACA	0.25 ± 0.063
UAGUCUGUCUGCUUCUCUGAGAGAUUUUGA	0.000439 ± 0.013
UAGUGACUCACCUUCUGUGAGUGAUUAACA	0.00145 ± 0.0072
UAGUGUGUGACCUUCUCUGAGUGAUUAACA	0.00169 ± 0.0075
UAGUGACAGUCCUUCUCUGAGAGAUAAUGA	0.000485 ± 0.011
UAGUGAGUCACCAAGUCUGAGAGAUUUUGA	0.000456 ± 0.022
UAGUGACAGUCCUUCUCUGAGUGUUUAACA	0.000165 ± 0.018
UAGUGACUCACCUUCUCACUCUCUAAUUGA [g14:g23:cont:t1A]	0.000289 ± 0.027
UAGUCUGUCAGGUUCUCUGAGAGAUUUUGA	0.000851 ± 0.0054
UAGUGACUCACCUUCAGUGAGAGAUAUUGA	0.0012 ± 0.008
UAGUGAGUCACCUUCUCUGACUCAUUUUGA	0.000844 ± 0.011
UAGUGACUCUCCUUCUCUGAGAGAUAUUGA	0.00144 ± 0.0053
UAGUGACUGUGCUUCUCUGAGAGAUUUUGA	0.000437 ± 0.014
UAGUGACAGUGCUUCUCUCAGAGAUUAAGA	0.00117 ± 0.0065
UAGUGACAGUGGAACAUCUGAGAGAUUAACA	0.0011 ± 0.0034
UAGUGACAGUGGAAGUCUGACAGAUUAACA	0.000132 ± 0.021
UAGUGACAGUGCUUCUCUGAGAGUAUAACA	0.000271 ± 0.0092
UAGUGACACACCUUCUGACAGAGAUUUUGA	0.00102 ± 0.0099
UAGUGACAGUGCUUCUCUAGAGAUUAACA	0.000839 ± 0.0071
UAGUGACAGAGGUUCUCUGAGAGAUUAUGA	0.000798 ± 0.0064
UAGUGACACACCUUCUCAGAGUGAUUAACA	0.00281 ± 0.0059

Sequence	pre-steady-state target cleavage rate
UAGUGACAGUGGUUCUCUGCGAGAUUAACA	0.000986 ± 0.0062
UAGUGACAGUGGAAGACUGAGAGUAUUAACA	0.000179 ± 0.015
UAGUGACAGUGCUUCUCUGAGCGAUUAACA	0.000991 ± 0.0047
UAGUGACAGUGCUUCACUGAGUGAUUAACA	0.00348 ± 0.0037
UAGUGACAGUCCAUCUCUGAGAGAUUAUGA	0.000383 ± 0.017
UAGUGUGUCACCUUCUCUGAGAGUAAAACA	0.194 ± 0.057
UAGUGACAGACCAUCUCAGAGAGAUUAACA	0.00328 ± 0.0046
UAGUGACAGUCCUUCUCUGAGAGAUAUAGA	0.000348 ± 0.014
UAGUCUGUGACGUUCUCUGAGAGAUUAACA	0.147 ± 0.01
UAGUGACAGUGCUUCUCGUGAGAGAUUAACA	0.000602 ± 0.013
UAGUGACAGUGGAAGAGUGAGAAUUAACA	0.000179 ± 0.051
UAGUGACAGUGGAACUCUGAGAGUUAAACA	< 0.0001
UAGUCUGUCACCUUCUCUGACUCAUUAACA	0.00126 ± 0.0043
UAGUGACAGUGGAACUCUGAGAAGAUUAACA	0.00026 ± 0.032
UAGUGACAGUGGAAGAGUGAGAGAUCUAACA	0.000122 ± 0.058
UAGUGACAGUCCUUCUCUCAGUGAUUAACA	0.00226 ± 0.0031
UAGUGAGUCUCCUUCACUGAGAGAUUAACA	0.166 ± 0.016
UAGUGACAGACCUUCUCUGAGAGAAAAACA	0.00247 ± 0.0064
UAGUGACAGUCCUUCACUCAGAGAUUAACA	0.0024 ± 0.0053
UAGUGACAGACCUUCUCUGAGAGAUAUUGA	0.000859 ± 0.011
UAGUCUGUCACCUUCUCUGAGAGAUUAAAA	0.12 ± 0.031
UAGUGACAGACCUUCUGUGAGAGAUUUUGA	0.00229 ± 0.0065
UAGUGACUCACCUUCUCUGAGUCUUUAACA	0.00062 ± 0.014
UAGUGACAGUGGAAGACUGAAAGAUUAACA	0.000113 ± 0.026

Sequence	pre-steady-state target cleavage rate
UAGUGACACACCUUCUCCUGAGAGAUUAACA	0.00434 ± 0.0049
UAGUGACAGUGGAACUCUGAGACAUAAACA	0.00122 ± 0.017
UAGUGACAGUGGAUCACUGAGAGAUUAACA	0.000355 ± 0.006
UAGUCUGUCACGUUCUCUGAGAGAUAUUGA	0.000974 ± 0.007
UAGUGACAGUCCUUCUCUGAGAGAUUUAGA	0.0011 ± 0.006
UAGUGACAGUCCUUCUCUGAGAGUUUUACA	0.00041 ± 0.015
UAGUGACAGUCCUUCUCUGGAGAGAUUAACA	0.000138 ± 0.019
UAGUGAGUCACCUUCUCUGAGAGAUUAACC [g2:g24:cont:t1C]	0.192 ± 0.018
UAGUGACAGUGGAACUCUGAAAGAUUAACA	0.00117 ± 0.015
UAGUGACAGUCCUACUCUGAGACAUUAACA	0.000705 ± 0.0043
UAGUGACAGUGGAAGAGAGAGAGUUUAUCA	0.000169 ± 0.053
UAGUGACACACCUUGUCUGAGAGAUUUUGA	0.000586 ± 0.017
UAGUGAGUCACCUUCCUGAGAGAUUAACA	0.119 ± 0.038
UAGUGACAGUGGAAGUCUGAGAGAUUGAACA	0.00019 ± 0.014
UAGUGACAGUGGAAGACUGAGCGAUUAACA	0.000201 ± 0.031
UAGUCUGUCAACCUUCUCUGAGAGAUUAACA	0.0716 ± 0.011
UAGUGACUCACCUUCUCUGACUCAUUAUGA	0.000148 ± 0.03
UAGUGACUCACCAACUCUGAGAGAUUAUGA	0.002 ± 0.0054
UAGUGAGUCACCUUCUUCUGAGAGAUUAACA	0.0918 ± 0.028

In another format: entries from further up

| Sequence | pre-steady-state target cleavage rate |
| --- | --- |
| UAGUGACAGUGGAAGAGAGAGAGUUUAUCA | 0.000169 ± 0.053 |
| UAGUGACACACCUUGUCUGAGAGAUUUUGA | 0.000586 ± 0.017 |
